# Reference: paper PMC8173199
# No constants are given. Whether binding was seen depends on the method and setting. Some entries that bind do so weakly or less than the wild type. Sequences can lack the tags named with a protein.
# T1: non-expressor of pathogenesis-related genes 1 (NPR1) fused to GFP (Arabidopsis thaliana), P93002
# T1 chain: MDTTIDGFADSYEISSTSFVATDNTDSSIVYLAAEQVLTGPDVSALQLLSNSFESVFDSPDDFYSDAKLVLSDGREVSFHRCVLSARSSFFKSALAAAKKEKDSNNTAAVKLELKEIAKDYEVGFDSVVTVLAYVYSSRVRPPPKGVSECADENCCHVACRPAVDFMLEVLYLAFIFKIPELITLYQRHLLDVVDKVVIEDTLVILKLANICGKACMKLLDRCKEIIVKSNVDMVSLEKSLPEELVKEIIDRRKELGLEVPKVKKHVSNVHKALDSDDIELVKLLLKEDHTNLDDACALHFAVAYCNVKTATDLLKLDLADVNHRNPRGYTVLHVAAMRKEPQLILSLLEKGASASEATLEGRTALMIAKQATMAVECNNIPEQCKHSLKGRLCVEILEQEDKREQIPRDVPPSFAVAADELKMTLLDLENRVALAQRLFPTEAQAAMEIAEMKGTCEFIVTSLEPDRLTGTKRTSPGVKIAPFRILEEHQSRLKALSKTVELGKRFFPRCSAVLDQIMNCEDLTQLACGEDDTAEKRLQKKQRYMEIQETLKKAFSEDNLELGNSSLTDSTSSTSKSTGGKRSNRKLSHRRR
# Target: T1, non-expressor of pathogenesis-related …
# Experiment: non-reducing SDS-PAGE with immunoblot; total protein (30 ug) of 35S::NPR1-GFP (npr1-2) plants treated with 100 uM naringenin (time course), 200 uM SA or 50 uM PD98059; SDS-PAGE with or without DTT in the sample buffer (62.5 mM Tris-HCl pH 6.8, 10% glycerol, 1% LDS); immunoblot with polyclonal anti-NPR1; oligomeric (O) and monomeric (M) forms
# Settings: remark: other sources report otherwise
binder,measurement,value
"non-expressor of pathogenesis-related genes 1 (NPR1) fused to GFP, P93002 1-593 (protein) MDTTIDGFADSYEISSTSFVATDNTDSSIVYLAAEQVLTGPDVSALQLLSNSFESVFDSPDDFYSDAKLVLSDGREVSFHRCVLSARSSFFKSALAAAKKEKDSNNTAAVKLELKEIAKDYEVGFDSVVTVLAYVYSSRVRPPPKGVSECADENCCHVACRPAVDFMLEVLYLAFIFKIPELITLYQRHLLDVVDKVVIEDTLVILKLANICGKACMKLLDRCKEIIVKSNVDMVSLEKSLPEELVKEIIDRRKELGLEVPKVKKHVSNVHKALDSDDIELVKLLLKEDHTNLDDACALHFAVAYCNVKTATDLLKLDLADVNHRNPRGYTVLHVAAMRKEPQLILSLLEKGASASEATLEGRTALMIAKQATMAVECNNIPEQCKHSLKGRLCVEILEQEDKREQIPRDVPPSFAVAADELKMTLLDLENRVALAQRLFPTEAQAAMEIAEMKGTCEFIVTSLEPDRLTGTKRTSPGVKIAPFRILEEHQSRLKALSKTVELGKRFFPRCSAVLDQIMNCEDLTQLACGEDDTAEKRLQKKQRYMEIQETLKKAFSEDNLELGNSSLTDSTSSTSKSTGGKRSNRKLSHRRR",binding,binds
